The results in this text go back to article doi:10.1101/377275.

Chains of the proteins cited; added tags and fusions are not shown.
UniProt Q9WVL2: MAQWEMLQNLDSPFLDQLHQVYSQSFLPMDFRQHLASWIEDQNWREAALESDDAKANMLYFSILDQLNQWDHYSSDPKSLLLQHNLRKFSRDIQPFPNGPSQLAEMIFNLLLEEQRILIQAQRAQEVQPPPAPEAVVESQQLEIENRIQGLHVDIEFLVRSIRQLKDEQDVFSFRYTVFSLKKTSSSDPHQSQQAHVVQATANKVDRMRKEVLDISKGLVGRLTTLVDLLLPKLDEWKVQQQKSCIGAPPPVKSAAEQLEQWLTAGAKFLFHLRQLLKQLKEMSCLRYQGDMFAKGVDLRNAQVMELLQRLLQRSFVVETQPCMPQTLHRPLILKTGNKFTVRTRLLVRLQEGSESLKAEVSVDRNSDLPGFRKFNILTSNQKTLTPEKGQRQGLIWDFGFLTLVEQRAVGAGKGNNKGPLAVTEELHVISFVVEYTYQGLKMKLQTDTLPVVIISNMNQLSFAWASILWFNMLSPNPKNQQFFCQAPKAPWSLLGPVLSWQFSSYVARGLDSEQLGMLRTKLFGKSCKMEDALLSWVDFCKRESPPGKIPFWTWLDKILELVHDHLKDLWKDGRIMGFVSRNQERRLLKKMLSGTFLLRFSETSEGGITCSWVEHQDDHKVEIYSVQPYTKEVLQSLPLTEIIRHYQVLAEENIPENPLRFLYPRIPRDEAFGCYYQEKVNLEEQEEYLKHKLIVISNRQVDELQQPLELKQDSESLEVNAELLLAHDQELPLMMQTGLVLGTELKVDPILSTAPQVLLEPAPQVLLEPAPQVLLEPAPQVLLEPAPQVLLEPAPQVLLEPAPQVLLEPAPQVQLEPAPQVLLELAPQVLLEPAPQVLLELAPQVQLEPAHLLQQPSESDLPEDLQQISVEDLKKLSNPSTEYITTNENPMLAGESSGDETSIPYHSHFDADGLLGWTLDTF

Assay [1] concerns the target STAT2 (mouse (endogenous in BMDM and Raw 264.7)) (UniProt Q9WVL2). In words: co-IP.
The target in assay [2] is T1, interferon regulatory factor 9 (IRF9) (mouse (endogenous in BMDM and Raw 264.7)), Q61179.
T1 chain: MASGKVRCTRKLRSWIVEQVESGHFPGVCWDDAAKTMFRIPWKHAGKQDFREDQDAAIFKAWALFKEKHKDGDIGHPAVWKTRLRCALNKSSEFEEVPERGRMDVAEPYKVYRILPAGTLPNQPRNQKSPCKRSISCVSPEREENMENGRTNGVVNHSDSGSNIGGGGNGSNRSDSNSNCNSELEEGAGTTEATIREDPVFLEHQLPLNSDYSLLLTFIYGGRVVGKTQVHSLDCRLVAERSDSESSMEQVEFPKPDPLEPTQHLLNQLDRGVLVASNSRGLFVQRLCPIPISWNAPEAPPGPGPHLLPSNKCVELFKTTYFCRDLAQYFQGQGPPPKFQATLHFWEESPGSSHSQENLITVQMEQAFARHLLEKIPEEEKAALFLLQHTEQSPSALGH
The assay can be described thus: co-IP. The note with it: remark: other sources report otherwise.

These are yes or no findings as the source states them, for the method shown. Binding seen in cells or lysates may run through a third protein. Some entries that bind do so weakly or less than the wild type.

B1: interferon regulatory factor 9 (IRF9) (protein, UniProt Q61179 1-399)
chain: T1 chain
In the case of B1, the binding result in assay [1] is listed as “binds”.

B2: STAT1, P42225 1-749 (protein)
chain: MSQWFELQQLDSKFLEQVHQLYDDSFPMEIRQYLAQWLEKQDWEHAAYDVSFATIRFHDLLSQLDDQYSRFSLENNFLLQHNIRKSKRNLQDNFQEDPVQMSMIIYNCLKEERKILENAQRFNQAQEGNIQNTVMLDKQKELDSKVRNVKDQVMCIEQEIKTLEELQDEYDFKCKTSQNREGEANGVAKSDQKQEQLLLHKMFLMLDNKRKEIIHKIRELLNSIELTQNTLINDELVEWKRRQQSACIGGPPNACLDQLQTWFTIVAETLQQIRQQLKKLEELEQKFTYEPDPITKNKQVLSDRTFLLFQQLIQSSFVVERQPCMPTHPQRPLVLKTGVQFTVKSRLLVKLQESNLLTKVKCHFDKDVNEKNTVKGFRKFNILGTHTKVMNMEESTNGSLAAELRHLQLKEQKNAGNRTNEGPLIVTEELHSLSFETQLCQPGLVIDLETTSLPVVVISNVSQLPSGWASILWYNMLVTEPRNLSFFLNPPCAWWSQLSEVLSWQFSSVTKRGLNADQLSMLGEKLLGPNAGPDGLIPWTRFCKENINDKNFSFWPWIDTILELIKNDLLCLWNDGCIMGFISKERERALLKDQQPGTFLLRFSESSREGAITFTWVERSQNGGEPDFHAVEPYTKKELSAVTFPDIIRNYKVMAAENIPENPLKYLYPNIDKDHAFGKYYSRPKEAPEPMELDDPKRTGYIKTELISVSEVHPSRLQTTDNLLPMSPEEFDEMSRIVGPEFDSMMSTV
B2: the binding entry in assay [2] was “no binding”.
